# Laboratory results published in the supplement of paper PMC12889115.
# The other results are listed elsewhere or left out. These are raw signals, not scaled to a control.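 Primary screen: polymyxin B was added at a level permeabilizing Salmonella outer membranes while sparing inner membranes. DMSO wells, both with and without polymyxin B, established maximum growth. Plate-to-plate variation meant each plate was ranked on its own, and the lowest-OD600 compounds were selected as hits.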
# Test system: Salmonella enterica serovar Typhimurium SL1344
# Experiment: bacterial growth OD600 after 18 h with compound and polymyxin B; higher = more bacterial growth (less inhibition)
# Conditions: 50 µM, Mueller-Hinton broth
smiles,measurement,setting,value
CCc1cc(C(=O)N2CCCCC2C(=O)Nc2cccc(-c3nnc(C)s3)c2)on1 (stereo not given),bacterial growth OD600,polymyxin B 1 µg/mL,0.836
COc1ccc(OC)c(-c2nc(CN(Cc3cnn(C)c3)C(C)C)c(C)o2)c1,bacterial growth OD600,polymyxin B 1 µg/mL,1.15
CSc1ccccc1C(=O)NC1CCCN(CCCc2ccccc2)C1 (stereo not given),bacterial growth OD600,polymyxin B 1 µg/mL,0.994
CCn1ccnc1CNC(=O)CC(c1ccccc1)c1ccc2c(c1)OCO2 (stereo not given),bacterial growth OD600,polymyxin B 1 µg/mL,0.818
COc1ccc2c(c1)SC(c1ccc3c(c1)OCO3)CCN2Cc1ccsc1 (stereo not given),bacterial growth OD600,polymyxin B 0.75 µg/mL,-0.002
COCCN1C(=O)NC(Cc2ccc(F)cc2)(C2CCN(C(=O)c3c(F)cccc3F)CC2)C1=O (stereo not given),bacterial growth OD600,polymyxin B 0.75 µg/mL,0.818
Cn1nc(C(=O)N2CCCC(CCc3cccc(F)c3)C2)ccc1=O (stereo not given),bacterial growth OD600,polymyxin B 0.75 µg/mL,0.16
COc1ccccc1CCN1CCCC(CN(C)C(=O)c2cccnc2)C1 (stereo not given),bacterial growth OD600,polymyxin B 1 µg/mL,0.782
COC(=O)c1ccc(N2C[C@H]3OC(=O)N(CCc4ccc(OC)cc4)[C@H]3C2)nc1,bacterial growth OD600,polymyxin B 0.75 µg/mL,0.875
CCOC(=O)C1(Cc2ccccc2)CCN(Cc2ccc(NC(C)=O)cc2)CC1,bacterial growth OD600,polymyxin B 1 µg/mL,0.808
COc1ccc(CN2CCNC(=O)C2CC(=O)N2CCN(c3ccccc3C)CC2)cc1C (stereo not given),bacterial growth OD600,polymyxin B 1 µg/mL,1.25
CCCc1cc(CN(C)C(=O)CC2C(=O)NCCN2CCCc2ccccc2)n[nH]1 (stereo not given),bacterial growth OD600,polymyxin B 1 µg/mL,1.01
C=CCNC(=O)Cc1c2c(n(CCc3ccccc3)c1C)CCCC2=O,bacterial growth OD600,polymyxin B 1 µg/mL,0.745
CN(Cc1cnccn1)C(=O)c1csc2nc(-c3cccc(C(F)(F)F)c3)cn12,bacterial growth OD600,polymyxin B 1 µg/mL,1.13
CCOC(=O)CNC(=O)N1CCCC(C(=O)c2cccc(OC(C)C)c2)C1 (stereo not given),bacterial growth OD600,polymyxin B 1 µg/mL,0.864
O=C(CCc1ccncc1)NC1CCCN(C2CCCCCC2)C1 (stereo not given),bacterial growth OD600,polymyxin B 1 µg/mL,0.868
CC(C)Cc1ccc(CN2CCCC(NC(=O)c3ccc4c(c3)no[n+]4[O-])C2)cc1 (stereo not given),bacterial growth OD600,polymyxin B 1 µg/mL,0.659
Cn1nccc1C(=O)N1CCc2[nH]nc(-c3ccc4c(c3)OCO4)c2C1,bacterial growth OD600,polymyxin B 0.75 µg/mL,0.873
O=C(CCCc1cccs1)N1CCOc2ccc(C(O)C(c3ccccc3)c3ccccc3)cc2C1 (stereo not given),bacterial growth OD600,polymyxin B 0.75 µg/mL,0.012
COC(=O)c1ccc(CNC2CCN(c3ccc(C(=O)NC4CCCC4)cc3)CC2)cc1,bacterial growth OD600,polymyxin B 0.75 µg/mL,0.855

# Sorted by length of the SMILES (rising): part of the list above
smiles,measurement,setting,value
CSc1ccccc1C(=O)NC1CCCN(CCCc2ccccc2)C1 (stereo not given),bacterial growth OD600,polymyxin B 1 µg/mL,0.994
Cn1nc(C(=O)N2CCCC(CCc3cccc(F)c3)C2)ccc1=O (stereo not given),bacterial growth OD600,polymyxin B 0.75 µg/mL,0.16
CN(Cc1cnccn1)C(=O)c1csc2nc(-c3cccc(C(F)(F)F)c3)cn12,bacterial growth OD600,polymyxin B 1 µg/mL,1.13
